Test: Drug interaction studies: pharmacokinetic parameters of coadministered drug in the presence of glecaprevir/pibrentasvir
Type: in vivo, human
Settings: atorvastatin 10 mg once daily; GLE/PIB 400/120 mg once daily
Method: Drug interaction studies were performed with glecaprevir/pibrentasvir and other drugs that are likely to be coadministered and with drugs commonly used as probes for pharmacokinetic interactions.

## CC(C)c1c(C(=O)Nc2ccccc2)c(-c2ccccc2)c(-c2ccc(F)cc2)n1CC[C@@H](O)C[C@@H](O)CC(=O)O [atorvastatin]
  Central Value Ratio (90% CI) AUC: 8.28
  Central Value Ratio (90% CI) Cmax: 22.0
